Columns and labels:
[1] = tested on: cGvHD-induced skin fibrosis; assay: Sclerodermatous cGvHD mouse model (B10.D2 to BALB/c), skin fibrosis incl. RNASeq and immunofluorescence of skin; type: in vivo
Method: AM1476 was dissolved in sterile distilled water for the ex vivo and in vivo experiments. A concentration of 30 μM was applied for the ex vivo experiment. For the in vivo experiments, 1, 3, or 10 mg/kg was administered orally once or twice daily.
The B10.D2→BALB/c (H‐2d) minor histocompatibility antigen–mismatched model was performed as described.[9], [10] Briefly, female BALB/c (H‐2d) mice were purchased from Janvier. Male B10.D2 (H‐2d) mice were initially purchased from Jackson Laboratory. All mice were maintained in specific pathogen‐free conditions with sterile pellet food and water and a normal day–night cycle. For isolation of unfractionated bone marrow cells, tibial and femoral bones were prepared under sterile conditions. Phosphate buffered saline (PBS) was used to flush bone marrow cells from bone marrow cavities. Subsequently, bone marrow cells were filtered through 70‐μm nylon meshes (BD Biosciences), followed by erythrocyte hemolysis. The remaining bone marrow cells were kept on ice until transplantation. Transplantation of bone marrow cells and splenocytes was performed as follows: Recipient mice (BALB/c [H‐2d]) eight weeks of age received total body irradiation with 750 cGy. Six hours after irradiation, all BALB/c (H‐2d) recipients received bone marrow from either BALB/c (H‐2d) in a syngeneic transplantation manner or B10.D2 (H‐2d) in an allogeneic transplantation manner. For transplantation, 5 × 10[6] splenocytes and 2 × 10[6] bone marrow cells from donor mice were resuspended in 0.2 mL of PBS and injected via tail veins.[9], [10] To reflect the clinical situation with treatment initiation upon clinical signs of chronic graft‐versus‐host disease (cGvHD), treatment was started 21 days after bone marrow transplantation (BMT) and thus after the first clinically detectable manifestations of cGvHD in allogeneically transplanted mice. The outcome of treatment was analyzed seven weeks after transplantation. Eight mice per group were analyzed.
Mice were monitored clinically on a daily basis for behavior, activity, texture of the fur, weight, and consistency of the stool.[13] After the mice were killed, a gross macroscopic evaluation of the lungs and the skin was performed.
Recipient mice were clinically monitored on a daily basis from the day of transplantation to the indicated days after transplantation to determine the incidence and severity of cutaneous cGvHD as well as mobility, diarrhea, and weight loss.[10], [14] The following scoring system for cutaneous cGvHD was used: healthy appearance = 0; skin lesions with alopecia <1 cm[2] in area = 1; skin lesions with alopecia 1 to 2 cm[2] in area = 2; and skin lesions with alopecia >2 cm[2] in area = 3.
Skin samples were fixed in 4% formalin for six hours and embedded in paraffin. Five‐micrometer sections were cut and stained with hematoxylin and eosin (H&E). The dermal thickness was quantified on H&E‐stained sections using images captured with a light microscope (Nikon eclipse 80i) at 100‐fold magnification by manually measuring the distance between the epidermal‐dermal junction and the dermal‐subcutaneous fat junction at four sites per mouse.[15], [16] For lung samples, the whole left lung was fixed in 4% formalin for six hours and embedded in paraffin. Five‐micrometer sections were cut and stained with trichrome and sirius red. Histologic readouts were evaluation of the fibrotic area as the percentage of the total lung area in sirius red–stained sections (two sections per mouse) and quantification of pulmonary changes using the Ashcroft score (four sections per mouse).[17], [18]
The amount of collagen protein in skin and lung samples was determined by hydroxyproline assay.[19], [20] After digestion in 6 M HCl for three hours at 120°C, the pH of the samples was adjusted to a pH range of 6–7 with 6 M NaOH. Afterward, 0.06 M chloramine T was added to each sample and incubated for 20 minutes at room temperature.

[2] = tested on: PCS slices of SSc skin; assay: Precision cut skin (PCS) slices of SSc skin, ex vivo, RNASeq and immunofluorescence; type: cell-based, human; conditions: 30 μM
[3] = RNASeq of skin, 10 mg/kg once daily vs vehicle, allogeneic
[4] = murine cGvHD skin, RNASeq, validated by immunofluorescence

C[C@@H]1CN(C(=N)N)N=C1c1ccc(F)cc1O [AM1476]
DEGs, down-regulated genes [1, 3]: 89
DEGs, up-regulated genes [1, 3]: 171
differentially expressed genes (DEGs), total ([1]; RNASeq of skin, 10 mg/kg once daily vs vehicle, allogeneic, adjusted P ≤ 0.05, |log2FC| ≥ 1): 260
levels of P-STAT3 and PAI-1 ([1]; murine cGvHD skin): reduced
MAOB and SLC6A4 expression [1, 4]: up‐regulation
proinflammatory chemokines (eg, CCL2, CCL5, CCL18) [1, 4]: reduced
GSEA, gene set graft_versus_host_disease [2]: negatively regulated
GSEA, peroxisome proliferator-activated receptor signaling pathway [2]: induced
DEGs, down-regulated ([2]; 48 hours, n = 9 patients): 131
DEGs, up-regulated ([2]; 48 hours, n = 9 patients): 294
differentially expressed genes (DEGs), total ([2]; 48 hours, n = 9 patients, vs donor-matched vehicle, P ≤ 0.05, |log2FC| ≥ 1): 425
levels of P-STAT3 and PAI-1 ([2]; SSc-PCS): reduced
proinflammatory chemokines (eg, CCL2, CCL5, CCL18) ([2]; SSc-PCS): reduced
MAOB and SLC6A4 expression ([2]; SSc-PCS, RNASeq, validated by immunofluorescence): up‐regulation

Source: article PMC12311259, “Antifibrotic effects of specific targeting of the 5‐hydroxytryptamine 2B receptor (5‐HT2BR) in murine models and ex vivo models of scleroderma skin” (Arthritis & Rheumatology (Hoboken, N.j.), 2025)
